# According to PubChem BioAssay AID743255 (National Center for Advancing Translational Sciences (NCATS), 2014):
# By UniProt entry, the sequences of proteins in these tests, tags left out. Where a name states a change or a piece, a line headed by the entry shows the natural chain unless it says otherwise.
# UniProt O94782: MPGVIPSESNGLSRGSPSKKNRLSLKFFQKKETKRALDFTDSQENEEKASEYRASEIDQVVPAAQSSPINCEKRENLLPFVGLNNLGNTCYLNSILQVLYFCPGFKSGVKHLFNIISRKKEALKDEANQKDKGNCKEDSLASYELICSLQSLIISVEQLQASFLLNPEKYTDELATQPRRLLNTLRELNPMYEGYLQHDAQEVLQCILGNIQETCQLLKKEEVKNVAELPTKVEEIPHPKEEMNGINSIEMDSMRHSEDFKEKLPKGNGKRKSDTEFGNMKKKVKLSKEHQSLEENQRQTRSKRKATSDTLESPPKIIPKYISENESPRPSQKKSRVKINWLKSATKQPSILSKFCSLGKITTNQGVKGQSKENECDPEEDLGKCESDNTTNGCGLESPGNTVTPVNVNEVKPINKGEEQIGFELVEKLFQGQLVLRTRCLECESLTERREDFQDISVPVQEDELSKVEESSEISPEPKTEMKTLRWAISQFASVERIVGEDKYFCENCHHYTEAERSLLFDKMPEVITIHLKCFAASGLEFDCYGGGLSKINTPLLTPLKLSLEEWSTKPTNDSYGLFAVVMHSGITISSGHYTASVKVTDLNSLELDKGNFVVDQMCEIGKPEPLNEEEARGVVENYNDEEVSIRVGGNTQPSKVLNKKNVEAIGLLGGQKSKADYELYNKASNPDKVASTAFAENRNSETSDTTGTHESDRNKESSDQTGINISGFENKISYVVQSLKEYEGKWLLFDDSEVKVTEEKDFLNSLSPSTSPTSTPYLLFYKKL
# Out of some 390,000 compounds screened, about 910 (0.23%) were called active. The shares of active, inactive and inconclusive entries below differ from those in the screen. Calls follow the shape of the dose curve; as a rule, active = well fitted inhibition curve with a large enough effect; inconclusive = small, poorly fitted or top-dose-only effect; inactive = no such curve, though single readings can be large or run the other way. A potency beside an inconclusive call is a rough fit, not a confirmed value.
# Target: Ubiquitin carboxyl-terminal hydrolase 1 (Homo sapiens) (UniProt O94782)
# Assay: Inhibitors of USP1/UAF1: Primary Screen; also: nearly all actives have a fitted effect of over 60% in size
# Conditions: recombinant USP1/UAF1, Ub-Rhodamine cleavage fluorescence; series mostly up to 57.1 µM
# How it was run: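 High-throughput fluorogenic screen: 1nM USP1/UAF1 complex, Ub-Rho substrate 150nM final, 50mM HEPES pH 7.8 with 0.5mM EDTA, 0.1 mg/ml BSA, 1mM TCEP and 0.01% Tween-20.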
# Potency is read from the fitted curve at half-maximal effect.
row,SMILES,Potency
1,Cn1c(N)c(N2CCCCC2)c(=O)n(CC(=O)Nc2cccc(C#N)c2)c1=O,"inconclusive: 0.251 µM [inhibitor, full curve, poor fit]"
2,OC(c1ccccc1)C(NCCNCc1ccccc1)c1ccccc1 (stereo unspecified),"inconclusive: 79.4 µM [inhibitor, partial curve, poor fit]"
3,COC(=O)c1ccccc1NC(=O)Cn1cnc2c(cnn2-c2ccc(C)c(C)c2)c1=O,inactive
4,CCOc1cccc2c1Oc1nc(-c3ccccc3)nc(SCC(=O)Nc3ccc(F)cc3)c1C2,"inconclusive: 4.47 µM [inhibitor, partial curve]"
5,Cc1cc(C(=O)NC2CCCc3c2cnn3-c2ccc(C)c(C)c2)nc(C)n1 (stereo unspecified),inactive
6,Cc1ccc(NC(=O)CSc2nnc3n2CCCCC3)cc1S(=O)(=O)N1CCOCC1,inactive
7,Cn1c(=O)oc2cc(S(=O)(=O)N3CCN(c4cccc(Cl)c4)CC3)ccc21,"inconclusive: 44.7 µM [inhibitor, partial curve]"
8,Cc1ccc2nc(/C(C#N)=C\c3ccc(N4CCOCC4)o3)[nH]c2c1,active: 25.1 µM
9,Nc1nnn(-c2ccccc2)c1-c1ccccc1,"inconclusive: 44.7 µM [inhibitor, partial curve, poor fit]"
10,O=C(O)CCCN1C(=O)/C(=C\c2ccc(-c3nc4ccccc4s3)o2)SC1=S,"inconclusive: 11.2 µM [inhibitor, partial curve, poor fit]"
11,CCOc1ccccc1NC(=O)Cn1nnc(C(=O)NCc2ccc(F)cc2)c1N,"inconclusive: 4.47 µM [inhibitor, full curve, poor fit]"
12,O=C(CSc1nnc(COc2ccc(Cl)cc2)o1)N(c1ccccc1)C1CCS(=O)(=O)C1 (stereo unspecified),"inconclusive: 0.126 µM [inhibitor, full curve, poor fit]"
13,COc1ccc(Cn2ccc3nc(C)c(C(=O)N4CCN(c5ccc(OC)cc5)CC4)cc3c2=O)cc1,inactive
14,Oc1ccccc1C(=S)N1CCCC1,inactive
15,O=C(O)c1ccccc1C(=O)N1CCN(S(=O)(=O)c2cccc(C(F)(F)F)c2)CC1,"inconclusive: 5.62 µM [inhibitor, partial curve, poor fit]"
16,Cc1ccc(-n2nc3ccc(NC(=O)COc4ccccc4)cc3n2)cc1Cl,"inconclusive: 0.562 µM [inhibitor, full curve, poor fit]"
17,COC(=O)c1c(NC(=O)CN(C)CC(=O)Nc2ccc(C)cc2)sc2c1CCC(C)C2 (stereo unspecified),inactive
18,Cc1cc(C)cc(NC(=O)Cc2c(C(=O)O)c(C)cn2C)c1,"inconclusive: 10 µM [inhibitor, partial curve]"
19,O=C(NCc1ccco1)c1ccc2c(c1)N(Cc1c(F)cccc1Cl)C(=O)c1ccccc1S2,inactive
20,Cc1cc(C)cc(NC(=O)CSc2oc(-c3ccco3)nc2S(=O)(=O)c2ccc(Cl)cc2)c1,"inconclusive: 10 µM [inhibitor, single point]"
21,Cc1ccc(C(=O)CSc2nc3cccnc3n2C)cc1,inactive

# Three structures out of the list, arranged by molar mass, falling:
row,SMILES,Potency
19,O=C(NCc1ccco1)c1ccc2c(c1)N(Cc1c(F)cccc1Cl)C(=O)c1ccccc1S2,inactive
10,O=C(O)CCCN1C(=O)/C(=C\c2ccc(-c3nc4ccccc4s3)o2)SC1=S,"inconclusive: 11.2 µM [inhibitor, partial curve, poor fit]"
5,Cc1cc(C(=O)NC2CCCc3c2cnn3-c2ccc(C)c(C)c2)nc(C)n1 (stereo unspecified),inactive

# Continued:

row,SMILES,Potency
1,C/C(CC(=O)NCCN1CCOCC1)=N\NC(=O)c1ccncc1,"inconclusive: 44.7 µM [inhibitor, partial curve]"
2,CC1CN(CCOc2ccccc2C(C)C)CC(C)O1 (stereo unspecified),"inconclusive: 15.8 µM [inhibitor, partial curve, poor fit]"
3,CCCOc1ccc(CNC(=O)CCCn2nc(C)c3sc4ccccc4c3c2=O)cc1,"inconclusive: 316 µM [inhibitor, partial curve, poor fit]"
4,O=C1C(Cl)=C(NCCN2CCOCC2)C(=O)c2ccccc21,"inconclusive: 22.4 µM [inhibitor, partial curve]"
5,Cc1ccc(C(=O)OCc2cc(=O)n3ccsc3n2)s1,"inconclusive: 7.94 µM [inhibitor, partial curve, poor fit]"
6,CC(=O)N1CCC(C(=O)Nc2ccc(S(=O)(=O)NCCc3ccccc3)cc2)CC1,"inconclusive: 3.55 µM [inhibitor, partial curve]"
7,COc1ccc(CCNS(=O)(=O)c2ccc(S(=O)(=O)N3CCCC3)cc2)cc1OC,"inconclusive: 17.8 µM [inhibitor, single point]"
8,CN(C1CCCCC1)C(CNS(=O)(=O)c1ccc(Cl)cc1)c1ccccc1 (stereo unspecified),"inconclusive: 7.94 µM [inhibitor, full curve, poor fit]"
9,CCc1ccccc1NC(=O)Cc1ccc(NC(=O)N2CCCCc3ccccc32)cc1,"inconclusive: 50.1 µM [inhibitor, partial curve, poor fit]"
10,Cc1cccc(COCC(Cc2ccccc2)N2CCN(C(=O)c3ccc(Cl)c(Cl)c3)CCC2=O)c1 (stereo unspecified),inactive
11,N=c1c(S(=O)(=O)c2ccccc2)cc2c(=O)n3ccccc3nc2n1C1CCCC1,inactive
12,Cc1ccnc2c1ccc1c(C)ccnc12,"inconclusive: 35.5 µM [inhibitor, partial curve]"
13,CCOC(=O)CC(=O)CSc1nc(-c2ccc3c(c2)OCO3)cc(C(F)(F)F)c1C#N,"inconclusive: 35.5 µM [inhibitor, partial curve, poor fit]"
14,O=C1CSC(=S)N1N=Cc1ccccc1O,inactive
15,CCCS(=O)(=O)c1c(S(=O)(=O)CCC)c2cc(CC)ccn2c1C(=O)c1ccc(Cl)cc1,"inconclusive: 31.6 µM [inhibitor, single point]"
16,CCN1C(=O)[C@H]2[C@@H](c3ccc(C)cc3)N3C(=O)N(c4ccc(C(F)(F)F)cc4)C(=O)[C@@]3(CC)[C@H]2C1=O,"inconclusive: 44.7 µM [inhibitor, partial curve]"
17,COc1ccc(C(=O)NNc2ncnc3c2cnn3-c2cccc(Cl)c2)cc1OC,inactive
18,C=CCN1C=C2C(=O)C(C)(OC(=O)C3CCCC3)C(=O)C(c3ccccc3)=C2C=C1CCCC(=O)OC (stereo unspecified),"inconclusive: 2 µM [inhibitor, full curve]"
19,Cc1noc(C)c1S(=O)(=O)N(CC(=O)N1CCCCCC1)c1ccc(C(C)C)cc1,"inconclusive: 3.98 µM [inhibitor, partial curve]"
20,Cc1ccc(-n2nc(C)c3c(C(=O)NCCc4ccccc4)cc(C)nc32)cc1,"inconclusive: 0.355 µM [inhibitor, full curve, poor fit]"
